In PubChem BioAssay AID1347076 (National Center for Advancing Translational Sciences (NCATS), 2019):
Out of some 400,000 compounds screened, about 13,000 (3.2%) were called active. This list was built around the results that the source calls inconclusive (neither active nor inactive); the mix of calls is not that of the screen. Calls follow the shape of the dose curve; as a rule, active = well fitted cell-killing curve with a large enough effect; inconclusive = small, poorly fitted or top-dose-only effect, or effect the other way; inactive = flat fitted curve, though single readings scatter. Potencies beside an inconclusive call are fits to weak or partial responses and may not hold up.

experiment: qHTS assay for MDR1-selective chemotherapeutics: Primary screen using the drug-selected MDR subline cells KB-V1; settings: KB-V1 MDR cells viability, CellTiter-Glo, 72 h; activity change, negative = cytotoxicity: at 46.1 µM (top of the series); also: nearly all actives have a fitted effect of over 60% in size
Procedure, shortened: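 Cytotoxicity via CellTiter-Glo luminescence after 72 h compound exposure at 37 degrees C. Cells: drug-selected KB-V1 line, DMEM phenol-red free plus 10% FBS. Compounds tested at multiple concentrations; normalized data fitted to concentration-effect curves.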
% is scaled to controls: 0 for no effect and ±100 for the full control effect; potency is read from the fitted curve at half-maximal effect.

Compound | Potency | activity change, negative = cytotoxicity
Cn1c(=S)c2[nH]c(SCCC(C)(C)C)nc2n(C)c1=O | inconclusive: 1.64 µM [cytotoxic, full curve] | –
CN(C)C(CNC(=O)CN1C(=O)NC2(CCCC2)C1=O)c1ccccc1 (centres undefined) | inconclusive: 29.1 µM [rising, single point] | –
O=C1Cc2cc(S(=O)(=O)Nc3ccc(OC(F)(F)F)cc3)cc3c2N1CCC3 | inconclusive: 18.4 µM [cytotoxic, single point] | –
O=C1C(Cl)=C(Nc2ccccc2O)C(=O)N1CCc1ccccc1 | – | inconclusive: -43%
C=CCOc1ccc(C2=NO[C@@H]3[C@@H]4C[C@@H]([C@H]5C(=O)N(C)C(=O)[C@@H]45)[C@H]23)cc1 | inconclusive: 7.31 µM [cytotoxic, partial curve] | –
Cc1ccc(S[C@@H](CCN2CC[C@H](C(C)(C)C)CCC2=O)c2ccccc2)cc1 | inconclusive: 20.6 µM [cytotoxic, partial curve] | –
O=C(NC1CCN(C(=O)Nc2ccccc2)CC1)C1CCCCC1 | inconclusive: 16.4 µM [cytotoxic, partial curve, poor fit] | –
COc1ccc(NCC(=O)N/N=C/C2CCCCC2)cc1 | inconclusive: 25.9 µM [rising, partial curve, poor fit] | –
CN(CCCC(=O)Nc1ccc(Br)cc1F)S(=O)(=O)c1ccccc1 | inconclusive: 23.1 µM [cytotoxic, partial curve] | –
CC(C)=CC(=O)OCC(=O)Nc1ccc(Cl)cn1 | inconclusive: 23.1 µM [rising, partial curve] | –
CCn1c(-c2ccccc2Cl)nn(CC(=O)Nc2ccccc2OC)c1=S | inconclusive: 7.31 µM [cytotoxic, partial curve] | –
O=C(CC1Sc2ccccc2NC1=O)NCc1ccc(Cl)cc1 (centres undefined) | inactive | –
O=C(c1ccc(Cl)c(Cl)c1)N1CCC(O)(CN2CCOCC2)CC1 | inactive | –
Cc1ccc(-c2nc(NC(=O)CSc3nnc4scc(-c5ccccc5)n34)ns2)cc1 | inactive | –
O=c1c(CN2CCN(c3cccc(Cl)c3)CC2)coc2c(Cl)cc(Cl)cc12 | inconclusive: 0.731 µM [rising, full curve, poor fit] | –
Cn1c(/C=N/NC(=O)c2ccccc2)nc2ccccc21 | inconclusive: 29.1 µM [cytotoxic, single point] | –
COc1cc(NC(=O)c2ccno2)cc(C(=O)Nc2cccc(C(F)(F)F)c2)c1 | inconclusive: 16.4 µM [rising, partial curve, poor fit] | –
CC1CC(C)(C)CC2(C1)NC(=O)N(CC(=O)N(C)Cc1nc3ccccc3c(=O)[nH]1)C2=O (centres undefined) | inconclusive: 13 µM [rising, partial curve, poor fit] | –
CSc1nnc(NC(=O)c2nc(S(=O)(=O)Cc3cccc(C)c3)ncc2Cl)s1 | inconclusive: 20.6 µM [cytotoxic, single point] | –
CCOC(=O)c1cnc(-n2nc(C)cc2C)nc1N(CC)CC | active: 1.64 µM | –
O=C(Nc1nc2ccccc2[nH]1)c1ccc(F)cc1 | inconclusive: 20.6 µM [cytotoxic, partial curve] | –
Nc1sc(-c2ccccc2)cc1C(=O)N1CCN(c2ccccc2)CC1 | inactive | –
CCN(c1ccccc1)S(=O)(=O)c1ccc(NC(=O)c2nc(S(C)(=O)=O)ncc2Cl)cc1 | inconclusive: 23.1 µM [cytotoxic, single point] | –

Some of the entries so far, in CSV form:
Compound,Potency,"activity change, negative = cytotoxicity"
COc1cc(NC(=O)c2ccno2)cc(C(=O)Nc2cccc(C(F)(F)F)c2)c1,"inconclusive: 16.4 µM [rising, partial curve, poor fit]",–
CC1CC(C)(C)CC2(C1)NC(=O)N(CC(=O)N(C)Cc1nc3ccccc3c(=O)[nH]1)C2=O (centres undefined),"inconclusive: 13 µM [rising, partial curve, poor fit]",–

Later entries:

Compound | Potency | activity change, negative = cytotoxicity
CCOC(=O)c1cnc2ccc(OCC)cc2c1NCc1ccccc1OC | active: 7.31 µM | –
S=C(NCc1ccccn1)Nc1ccc(Cl)cc1 | inactive | –
COc1ccc(C(=O)CCC(=O)Nc2ccc(Cl)cc2)cc1 | inconclusive: 18.4 µM [rising, single point] | –
O=C(NCC(O)c1ccccc1)c1cccs1 (centres undefined) | inactive | –
COc1cc(CNC(=O)c2cnc3c(-c4cccc(C)c4)c(C)nn3c2C)cc(OC)c1OC | inconclusive: 23.1 µM [cytotoxic, single point] | –
Cc1ccccc1-c1nc(-c2ccccn2)no1 | inconclusive: 11.6 µM [cytotoxic, partial curve] | –
O=C(Nc1ccc2ccccc2c1)N1CCCN(CCOc2ccccc2)CC1 | active: 14.6 µM | –
O=C(CCCOc1ccccc1)N1CCN(S(=O)(=O)c2cccs2)CC1 | inconclusive: 25.9 µM [cytotoxic, single point] | –
Cc1ccc(-c2nc(S(=O)(=O)c3ccc(C)cc3)c(N(C)C)o2)cc1 | inconclusive: 20.6 µM [cytotoxic, single point] | –
Cc1ccc(S(=O)(=O)N(C)c2ccc(OCC(=O)Nc3nc4c(ccc5ccccc54)s3)cc2)cc1 | active: 4.11 µM | –
CC(C)C(NC(=O)OCc1ccccc1)C(=O)OCC(=O)N1CCCCC1 (centres undefined) | inconclusive: 23.1 µM [cytotoxic, single point] | –
O=C(c1noc2c1CCCC2)N1CCc2ccccc2C1 | inconclusive: 14.6 µM [cytotoxic, single point] | –
CC#CC(=O)N1CCC(Oc2cccc(C(=O)NCc3ccccn3)c2)CC1 | inconclusive: 16.4 µM [cytotoxic, single point] | –
Cc1ccc(-c2ccc(C3C(C#N)=C(N)Oc4n[nH]c(C)c43)o2)cc1 (centres undefined) | active: 25.9 µM | –
COc1ccc(NC(=O)NNC(=O)c2ccccc2-n2cccc2)cc1OC | inconclusive: 29.1 µM [cytotoxic, single point] | –
Nc1[nH]c(C(=O)c2ccccc2)c(-c2ccc(Cl)cc2)c1C(=O)NCc1ccco1 | inconclusive: 18.4 µM [cytotoxic, partial curve] | –
CC(=O)Nc1ccc(Nc2ccc3cc(S(=O)(=O)N4CCCCC4)ccc3n2)cc1 | inconclusive: 29.1 µM [rising, single point] | –
CC(C)N1CCc2c(sc(NC(=O)c3ccc4ccccc4c3)c2C(N)=O)C1 | inconclusive: 20.6 µM [cytotoxic, single point] | –
COc1ccc(/C=N/n2cnc3c([nH]c4ccccc43)c2=O)cc1CO | inactive | –
Cc1c(/C=N/Nc2nc3ccccc3[nH]2)c2ccccc2n1C | inconclusive: 32.6 µM [cytotoxic, single point] | –
CSCc1ccc(C(=O)NCc2ccc(C)cc2)cc1 | inconclusive: 18.4 µM [cytotoxic, single point] | –
CCC(=O)Nc1ccc(/C(C)=N/NC(=O)c2c(-c3ccccc3Cl)noc2C)cc1 | inactive | –
FC(F)(F)c1cccc(N2CCC(N=CN3CCCCCC3)=N2)c1 | inconclusive: 29.1 µM [cytotoxic, single point] | –

Compound | Potency | activity change, negative = cytotoxicity
Cc1cc(C)c2cc(C#N)c(N3CCCN(C(=S)NCCCN(C)C)CC3)nc2c1 | inconclusive: 16.4 µM [cytotoxic, single point] | –
CC(=O)c1ccc(Nc2cc(C)nc3nc(Cc4ccccc4)nn23)cc1 | inactive | –
O=C(c1ccco1)N1CCN(C(c2ccc(Cl)cc2)c2nnnn2Cc2ccccc2)CC1 (centres undefined) | active: 16.4 µM | –
COc1ccc(NC(=O)c2ccccc2OCc2c(C)noc2C)cc1OC | inconclusive: 5.17 µM [cytotoxic, partial curve, poor fit] | –
CC(Oc1ccccc1Cl)C(=O)Nc1ccc(S(=O)(=O)N2CCCC2)cc1 (centres undefined) | inconclusive: 23.1 µM [cytotoxic, partial curve, poor fit] | –
O=C(COc1ccccc1Cl)N1N=C(c2cccs2)CC1c1ccco1 (centres undefined) | inactive | –
COc1ccc(-c2nc(NC(=O)Cn3cnnn3)sc2C)cc1 | inactive | –
O=S1(=O)CCN(C2CCCCCCCCCCC2)CC1 | inconclusive: 16.4 µM [cytotoxic, single point] | –
Cc1ccc(N2C(=O)c3n[nH]c(C)c3C2c2ccccn2)cc1 (centres undefined) | inconclusive: 20.6 µM [cytotoxic, partial curve] | –
CCCN1C(=O)SC(CC(=O)Nc2ccccc2C)C1=O (centres undefined) | inconclusive: 14.6 µM [rising, partial curve, poor fit] | –
CCc1cccc(NC(=O)C(Cc2ccccc2)NS(=O)(=O)c2cccs2)c1 (centres undefined) | inconclusive: 0.0073 µM [cytotoxic, full curve, poor fit] | –
CCn1c(=NC(=O)c2ccco2)sc2cccc(F)c21 | inactive | –
COc1ccc(Cc2nc(-c3ccc(-n4cccc4)cc3)no2)cc1OC | inconclusive: 32.6 µM [cytotoxic, single point] | –
CCOc1nc(NCCO)nc(NCCC2=CCCCC2)n1 | inconclusive: 25.9 µM [cytotoxic, single point] | –
CN(c1ccccc1)S(=O)(=O)c1cccc(NC(=O)CSc2n[nH]c(N)n2)c1 | inactive | –
CCOC(=O)C1CCCN(C(=O)c2ccc(S(=O)(=O)NCc3ccco3)cc2)C1 (centres undefined) | inconclusive: 14.6 µM [cytotoxic, partial curve] | –
COc1cc(CC(=O)OCC(=O)NC(C)c2ccccc2)cc(OC)c1OC (centres undefined) | inconclusive: 2.91 µM [cytotoxic, partial curve, poor fit] | –
COc1ccc2[nH]c(-c3cccc(F)c3)cc(=O)c2c1 | inconclusive: 1.46 µM [cytotoxic, full curve] | –
COc1ccc(CNC/C=C/c2ccccc2)cc1 | inactive | –
CCn1ccnc1CN(C)C(=O)c1cc(COc2ccccc2SC)on1 | inconclusive: 14.6 µM [cytotoxic, partial curve] | –
O=C(Nc1ccc2c(c1)OCCO2)C1c2ccccc2OCC(=O)N1CCc1ccccc1 (centres undefined) | inactive | –
CCC(=O)N(CCC(Cc1ccccc1)c1ccco1)Cc1ccco1 (centres undefined) | inconclusive: 6.51 µM [cytotoxic, partial curve] | –
N#CC1(Nc2ccc(Br)cc2)CCCC1 | inconclusive: 0.461 µM [rising, full curve, poor fit] | –

Full records, looked up by structure. Order of values: Potency | activity change, negative = cytotoxicity
CCCN1C(=O)SC(CC(=O)Nc2ccccc2C)C1=O (centres undefined) is listed as inconclusive: 14.6 µM [rising, partial curve, poor fit] | –
COc1cc(CC(=O)OCC(=O)NC(C)c2ccccc2)cc(OC)c1OC (centres undefined) is listed as inconclusive: 2.91 µM [cytotoxic, partial curve, poor fit] | –
